Test results from paper PMC12753876 (2025).

B1: CRY1^(PHR WT) in pGADT7 (AD) [Arabidopsis thaliana] / HsFB2b^WT in pGBKT7 (BD) [Arabidopsis thaliana] (parent complex)
chain 1: MSGSVSGCGSGGCSIVWFRRDLRVEDNPALAAAVRAGPVIALFVWAPEEEGHYHPGRVSRWWLKNSLAQLDSSLRSLGTCLITKRSTDSVASLLDVVKSTGASQIFFNHLYDPLSLVRDHRAKDVLTAQGIAVRSFNADLLYEPWEVTDELGRPFSMFAAFWERCLSMPYDPESPLLPPKKIISGDVSKCVADPLVFEDDSEKGSNALLARAWSPGWSNGDKALTTFINGPLLEYSKNRRKADSATTSFLSPHLHFGEVSVRKVFHLVRIKQVAWANEGNEAGEESVNLFLKSIGLREYSRYISFNHPYSHERPLLGHLKFFPWAVDENYFKAWRQGRTGYPLVDAGMRELWATGWLHDRIRVVVSSFFVKVLQLPWRWGMKYFWDTLLDADLESDALGWQYITGTLPDSREFDRIDNPQFEGYKFDPNGEYVRRWLPELSRLPTDWIHHPWNAPESVLQAAGIELGSNYPLPIVGLDEAKARLHEALSQMWQLEAASRAAIENGSEE
chain 2: MPGEQTGETPTVAGVGGGGAGCSAGNSGGSSGCGAGGGGGGSGGGGGGGGDSQRSIPTPFLTKTYQLVEDPVYDELISWNEDGTTFIVWRPAEFARDLLPKYFKHNNFSSFVRQLNTYGFRKVVPDRWEFSNDCFKRGEKILLRDIQRRKISQPAMAAAAAAAAAAVAASAVTVAAVPVVAHIVSPSNSGEEQVISSNSSPAAAAAAIGGVVGGGSLQRTTSCTTAPELVEENERLRKDNERLRKEMTKLKGLYANIYTLMANFTPGQEDCAHLLPEGKPLDLLPERQEMSEAIMASEIETGIGLKLGEDLTPRLFGVSIGVKRARREEELGAAEEEDDDRREAAAQEGEQSSDVKAEPMEENNSGNHNGSWLELGK
B2: CRY1^(PHR WT) in pGADT7 (AD) [Arabidopsis thaliana] / HsFA3^WT in pGBKT7 (BD) [Arabidopsis thaliana] (parent complex)
chain 1: B1 chain 1
chain 2: MSPKKDAVSKPTPISVPVSRRSDIPGSLYVDTDMGFSGSPLPMPLDILQGNPIPPFLSKTFDLVDDPTLDPVISWGLTGASFVVWDPLEFARIILPRNFKHNNFSSFVRQLNTYGFRKIDTDKWEFANEAFLRGKKHLLKNIHRRRSPQSNQTCCSSTSQSQGSPTEVGGEIEKLRKERRALMEEMVELQQQSRGTARHVDTVNQRLKAAEQRQKQLLSFLAKLFQNRGFLERLKNFKGKEKGGALGLEKARKKFIKHHQQPQDSPTGGEVVKYEADDWERLLMYDEETENTKGLGGMTSSDPKGKNLMYPSEEEMSKPDYLMSFPSPEGLIKQEETTWSMGFDTTIPSFSNTDAWGNTMDYNDVSEFGFAAETTSDGLPDVCWEQFAAGITETGFNWPTGDDDDNTPMNDP

Variants of: B1
Assay: yeast two-hybrid (beta-galactosidase, Miller units); n=3; parent: 0.07; read off a plot

response	Variant
~0.1 Miller Units	chain 2 K249E

Variants of: B2
Assay: yeast two-hybrid (beta-galactosidase, Miller units); n=3; parent: 280; read off a plot

response	Variant
~150 Miller Units	chain 2 K174A, chain 2 K177A, chain 2 E178A

Variants of: B2
Assay: as above
Remark: another data set of the same source

response	Variant
~210 Miller Units	chain 2 E173R
